Results reported in PubChem BioAssay (NCATS).
The shares of active, inactive and inconclusive entries below differ from those in the screen. For some assays here: Potencies beside an inconclusive call are fits to weak or partial responses and may not hold up. The source made the active and inactive calls. Calls come from the whole dose curve; as a rule, active = well fitted curve in the direction sought with a large enough effect; inconclusive = small, poorly fitted or top-dose-only effect, or another doubt; inactive = no such curve, though single readings can be large; an effect the other way counts as inactive or inconclusive.

Sequences of proteins named here, by UniProt entry; tags and fusion partners are left off.
UniProt P09958, whole entry, looked up: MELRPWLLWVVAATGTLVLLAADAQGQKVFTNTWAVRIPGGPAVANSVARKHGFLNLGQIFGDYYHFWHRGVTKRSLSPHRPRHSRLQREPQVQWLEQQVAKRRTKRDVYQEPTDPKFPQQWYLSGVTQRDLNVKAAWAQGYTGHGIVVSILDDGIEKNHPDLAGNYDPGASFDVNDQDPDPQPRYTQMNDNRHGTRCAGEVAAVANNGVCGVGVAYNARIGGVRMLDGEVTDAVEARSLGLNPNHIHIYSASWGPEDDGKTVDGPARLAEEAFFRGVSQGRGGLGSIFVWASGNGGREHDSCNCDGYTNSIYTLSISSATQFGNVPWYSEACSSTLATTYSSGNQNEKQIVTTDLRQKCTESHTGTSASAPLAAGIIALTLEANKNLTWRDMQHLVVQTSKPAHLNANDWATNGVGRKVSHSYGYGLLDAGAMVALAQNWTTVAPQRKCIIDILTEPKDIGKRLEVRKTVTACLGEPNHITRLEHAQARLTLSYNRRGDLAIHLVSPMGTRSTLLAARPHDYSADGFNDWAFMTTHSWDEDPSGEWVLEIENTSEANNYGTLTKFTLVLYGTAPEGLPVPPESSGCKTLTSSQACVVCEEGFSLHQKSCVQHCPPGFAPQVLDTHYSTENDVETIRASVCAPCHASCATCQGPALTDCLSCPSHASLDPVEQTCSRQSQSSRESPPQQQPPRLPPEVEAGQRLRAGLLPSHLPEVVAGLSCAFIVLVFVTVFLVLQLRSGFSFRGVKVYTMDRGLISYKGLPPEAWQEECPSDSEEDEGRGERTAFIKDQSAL

Key:
[1] = qHTS of pediatric cancer cell lines to identify multiple opportunities for drug repurposing: Confirmatory screen for RD cells (AID 1347124); settings: RD rhabdomyosarcoma cell viability; activity change, negative = cytotoxic: at 45.9 µM (top of the series) unless noted;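 note: potency is the fitted concentration of half-maximal effect; cells exposed to compound for 48 h before viability readout; nearly all actives have a fitted effect of over 65% in size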
In short: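 Cells (500-1,000/well) rested 5 h, then received compounds for 48 h; metabolically active cells were measured by CellTiter-Glo luminescence. Final concentrations spanned up to 46 µM (MIPE, 11-point) or 0.59 nM-46 µM (NPC, 8-point) in primary screens, 11-point in follow-ups.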

[2] = target: Furin (Homo sapiens) (UniProt P09958); experiment: Furin counterscreen qHTS for Zika virus inhibitors (AID 1347149); settings: furin enzymatic counterscreen, fluorogenic substrate; series mostly up to 57.5 µM; note: potency is the fitted concentration of half-maximal effect; nearly all actives have a fitted effect of over 70% in size
In short: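 Fluorogenic cleavage of BOC-RVRR-AMC (2 microM final, Km ~15 µM) was monitored (ex 340, em 450 nm) at 37C after 15 min RT preincubation of 5 nM furin with compounds in HEPES pH 7.0 buffer with CaCl2 and Triton X-100. Percent inhibition was fitted to a 4-parameter Hill curve.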

[3] = Tertiary RLuc qRT-PCR qHTS assay for Zika virus inhibitors (AID 1347169); settings: infected Vero cells, reporter luminescence, 48-72 h; series mostly up to 45.9 µM; note: potency is the fitted concentration of half-maximal effect; nearly all actives have a fitted effect of over 55% in size
In short: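 Vero cells (1,000 per well) plated overnight at 37 degrees C, treated with compound in DMSO, then infected with recombinant ZIKV-RLuc (Cambodian) at MOI 1-2 for 48-72 hrs. Live-cell Renilla luciferase substrate added; luminescence read after 1-1.5 hrs.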

[4] = Primary qHTS for inhibitors of La Crosse Virus (LACV) - induced cell death in SH-SY5Y cells (AID 1508616); settings: SH-SY5Y LACV cytopathicity rescue, ATP luminescence, 6 d; series mostly up to 4.29 µM; note: potency is the fitted concentration of half-maximal effect
In short: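 SH-SY5Y cells (6000/well) plated 24 h, then given compounds by pin transfer and LACV at 0.01 MOI for 6 days at 37C. Viability measured by ATPLite luminescence, normalized to infected DMSO and uninfected DMSO.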

[5] = qHTS of pediatric cancer cell lines to identify multiple opportunities for drug repurposing: Primary screen for MG 63 (6-TG R) cells (AID 1347105); settings: MG 63 (6-TG R) viability, CellTiter-Glo, 48 h; activity change, negative = cytotoxic: at 46 µM (top of the series) unless noted; note: potency is the fitted concentration of half-maximal effect; nearly all actives have a fitted effect of over 50% in size
In short: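 CRCs from 8- or 11-point titrations (lowest final 0.59 nM NPC, 0.78 nM MIPE). Cell viability: CellTiter-Glo after 48 h incubation, 15 min room-temperature development, luminescence imaging.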

[6] = Quantitative High-Throughput drug screen in 47 multiple myeloma cell lines against the NCATS MIPE library collection: Karpas417_ECACC cell viability assay (AID 1918961); settings: Karpas417 myeloma viability, CellTiter-Glo ATP luminescence, 48 h; viability (% of DMSO): at 45.8 µM (top of the series); note: potency is the fitted concentration of half-maximal effect
In short: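 Steps: seed 500 cells per well; pin-transfer MIPE 4.0 library; incubate 48 h at 37C, 5% CO2, humidified; add CellTiter-Glo, 5 min room temperature; read luminescence.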

[7] = test system: ATS189; experiment: qHTS profiling for inhibitors of Plasmodium falciparum proliferation (AID 504749); note: nearly all actives have a fitted effect of over 60% in size; note: potency is the fitted concentration of half-maximal effect;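 for activity, negative = inhibition: 0% = DMSO vehicle and full inhibition = artemisinin control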; settings: P. falciparum in erythrocytes, SYBR Green DNA, 72 h; series mostly up to 28.7 µM
In short: (§1)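 Infected RBCs, 0.3% parasitemia/2.5% Hct final; cpd 72 h, 37 C, 5% CO2; lysis buffer with saponin/triton/SYBR Green I, o/n RT dark; FI 485/535; norm. to artemisinin (0.29 uM) and DMSO.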

[8] = test system: CP185; experiment: as above; settings: P. falciparum in erythrocytes, SYBR Green DNA, 72 h; series mostly up to 28.7 µM
In short: as §1

[9] = test system: HB3; experiment: as above; settings: P. falciparum in erythrocytes, SYBR Green DNA, 72 h; series mostly up to 28.7 µM
In short: as §1

[10] = test system: JCK; experiment: as above; settings: P. falciparum in erythrocytes, SYBR Green DNA, 72 h; series mostly up to 28.7 µM
In short: as §1

[11] = test system: N140; experiment: as above; settings: P. falciparum in erythrocytes, SYBR Green DNA, 72 h; activity, negative = inhibition: at 28.7 µM (top of the series) unless noted
In short: as §1

[12] = test system: P93_24; experiment: as above; settings: P. falciparum in erythrocytes, SYBR Green DNA, 72 h; series mostly up to 28.7 µM
In short: as §1

[13] = test system: P94_40; experiment: as above; settings: P. falciparum in erythrocytes, SYBR Green DNA, 72 h; series mostly up to 28.7 µM
In short: as §1

[14] = test system: W2; experiment: as above; settings: P. falciparum in erythrocytes, SYBR Green DNA, 72 h; series mostly up to 28.7 µM
In short: as §1

[15] = S16 Schwann cell PMP22 intronic element firefly luciferase assay (AID 624032); settings: S16 rat Schwann cells, PMP22 element FLuc, 24 h; series mostly up to 57.5 µM; note: potency is the fitted concentration of half-maximal effect; nearly all actives have a fitted effect of over 30% in size
In short: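 Luciferase reporter of PMP22 intronic-element expression in stably transfected S16 rat Schwann cells, read by ONE-Glo luminescence after 24 h compound exposure at 37 C. Activity scaled between DMSO (0%) and positive-control PTC124; concentration-effect curves quality-classified.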

[16] = test system: TAB109; experiment: qHTS profiling for inhibitors of Plasmodium falciparum proliferation (AID 504749); note: nearly all actives have a fitted effect of over 60% in size; note: potency is the fitted concentration of half-maximal effect;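 for activity, negative = inhibition: 0% = DMSO vehicle and full inhibition = artemisinin control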; settings: P. falciparum in erythrocytes, SYBR Green DNA, 72 h; series mostly up to 28.7 µM
In short: as §1

[17] = Quantitative High-Throughput drug screen in 47 multiple myeloma cell lines against the NCATS MIPE library collection: H1112_PLB cell viability assay (AID 1918967; note: potency is the fitted concentration of half-maximal effect; nearly all actives have a fitted effect of over 30% in size); settings: H1112 myeloma cells viability, ATP luminescence, 48 h; series mostly up to 45.8 µM
In short: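 Viability readout: CellTiter-Glo luminescence following 5 min room-temperature incubation with reagent. Prior exposure: 48 h, 37C, humidified 5% CO2, 500 cells per well.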

[18] = Quantitative High-Throughput drug screen in 47 multiple myeloma cell lines against the NCATS MIPE library collection: KMS27_JCRB cell viability assay (AID 1918970); settings: KMS27 myeloma cells, CellTiter-Glo ATP viability, 48 h; viability (% of DMSO): at 45.8 µM (top of the series); note: potency is the fitted concentration of half-maximal effect; nearly all actives have a fitted effect of over 30% in size
In short: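 Myeloma cells (500 per well) were exposed to MIPE 4.0 compounds for 48 h at 37 °C, 5% CO2; viability was read as ATP luminescence with CellTiter-Glo, normalized to DMSO-only (100%) and media-only (0%) wells.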

[19] = Quantitative High-Throughput drug screen in 47 multiple myeloma cell lines against the NCATS MIPE library collection: L363_DSMZ cell viability assay (AID 1918984); settings: L363 myeloma viability, CellTiter-Glo ATP luminescence, 48 h; viability (% of control): at 45.8 µM (top of the series); note: nearly all actives have a fitted effect of over 40% in size
In short: (§2)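 Inhibition of viability over 48 h was scored by ATP content (CellTiter-Glo) in 500-cell wells. Zero and full viability were defined by media-only and DMSO-only wells.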

[20] = Quantitative High-Throughput drug screen in 47 multiple myeloma cell lines against the NCATS MIPE library collection: KMS28BM_JCRB cell viability assay (AID 1919874); settings: CellTiter-Glo ATP, 48 h; series mostly up to 45.8 µM; note: potency is the fitted concentration of half-maximal effect; nearly all actives have a fitted effect of over 35% in size
In short: as §2

SMILES: COc1c(C)c2c(c(O)c1C/C=C(\C)CCC(=O)OCCN1CCOCC1)C(=O)OC2
- Potency [1]: inconclusive: 5.22 µM [cytotoxic, partial curve]
- Potency [2]: inconclusive: 27.1 µM [inhibitor, partial curve, poor fit]
- Potency [3]: active: 0.739 µM
- Potency [4]: inconclusive: 0.708 µM [inhibitor, partial curve, poor fit]

SMILES: CCCCCCCCc1ccc(CCC(N)(CO)CO)cc1
- Potency [5]: active: 18.7 µM
- Potency [2]: inconclusive: 34 µM [inhibitor, single point]
- Potency [3]: active: 16.5 µM
- Potency [6]: active: 6.62 µM

SMILES: CCC1=C[C@@H]2CN(C1)Cc1c([nH]c3ccccc13)[C@@](C(=O)OC)(c1cc3c(cc1OC)N(C)[C@H]1[C@@](O)(C(=O)OC)[C@H](OC(C)=O)[C@]4(CC)C=CCN5CC[C@]31[C@@H]54)C2
- Potency [1]: active: 0.0293 µM

SMILES: O=C(CCCN1CCC(O)(c2ccc(Br)cc2)CC1)c1ccc(F)cc1
- Potency [1]: inconclusive: 29.3 µM [cytotoxic, single point]
- Potency [7]: inconclusive: 3.55 µM [inhibitor, single point]
- Potency [8]: inconclusive: 3.98 µM [inhibitor, single point]
- Potency [9]: inconclusive: 3.98 µM [inhibitor, single point]
- Potency [10]: inconclusive: 0.0224 µM [inhibitor, full curve, poor fit]
- Potency [11]: inconclusive: 3.55 µM [inhibitor, single point]
- Potency [12]: inconclusive: 5.01 µM [inhibitor, single point]
- Potency [13]: inconclusive: 5.01 µM [inhibitor, single point]
- Potency [14]: active: 1.44 µM

SMILES: CCCCN(CCCC)CC(O)c1cc(Cl)cc2c1-c1ccc(Cl)cc1/C2=C/c1ccc(Cl)cc1 (configuration not stated)
- Potency [15]: inconclusive: 32.2 µM [inhibitor, single point]
- Potency [7]: active: 0.0126 µM
- Potency [8]: active: 0.0316 µM
- Potency [9]: active: 0.0141 µM
- Potency [10]: inconclusive: 0.316 µM [inhibitor, full curve, poor fit]
- Potency [11]: active: 0.0045 µM
- Potency [12]: active: 0.0126 µM
- Potency [14]: inconclusive: 0.0076 µM [activator]

SMILES: CC(=O)Nc1c(I)cc(I)c(C(=O)O)c1I
- Potency [15]: inconclusive: 40.5 µM [inhibitor, single point]
- Potency [4]: inconclusive: 0.447 µM [inhibitor, full curve, poor fit]
- Potency [12]: inconclusive: 3.55 µM [inhibitor, single point]
- Potency [16]: inactive

SMILES: CCCN(CCc1cccs1)[C@H]1CCc2c(O)cccc2C1
- Potency [7]: active: 7.94 µM
- Potency [8]: active: 11.2 µM
- Potency [9]: active: 10 µM
- Potency [10]: inconclusive: 11.2 µM [inhibitor, single point]
- Potency [11]: active: 3.16 µM
- Potency [13]: active: 4.47 µM
- Potency [16]: active: 7.08 µM
- Potency [14]: active: 1.35 µM

SMILES: COCCOC(=O)C1=C(C)NC(C)=C(C(=O)OC(C)C)C1c1cccc([N+](=O)[O-])c1 (configuration not stated)
- Potency [15]: active: 16.1 µM
- Potency [5]: inconclusive: 21.1 µM [cytotoxic, partial curve, poor fit]
- Potency [7]: inconclusive: 7.08 µM [inhibitor, partial curve]
- Potency [8]: inconclusive: 10 µM [inhibitor, single point]
- Potency [9]: inconclusive: 11.2 µM [inhibitor, partial curve]
- Potency [10]: inconclusive: 11.2 µM [inhibitor, single point]
- Potency [12]: inconclusive: 10 µM [inhibitor, single point]
- Potency [13]: inconclusive: 17.8 µM [inhibitor, single point]
- Potency [16]: inconclusive: 11.2 µM [inhibitor, single point]
- Potency [14]: inconclusive: 16.9 µM [inhibitor, single point]

SMILES: Cc1cnc(NC(=O)Nc2cc(Br)c(C)cc2OC[C@@H]2CNCCO2)cn1
- Potency [5]: inconclusive: 1.87 µM [cytotoxic, full curve, poor fit]
- viability (% of DMSO) [6]: active: 73.4%
- Potency [17]: active: 5.9 µM
- Potency [18]: inconclusive: 1.18 µM [cytotoxic, full curve]
- viability (% of control) [19]: inconclusive: 14.8% [cytotoxic]
- Potency [20]: active: 14.8 µM

SMILES: C[C@@H](CN(C)C)CN1c2ccccc2Sc2ccccc21
- activity, negative = inhibition [11]: inconclusive: -30.1% [inhibitor] [at 12.8 µM]
- Potency [13]: inconclusive: 3.98 µM [inhibitor, partial curve]
- Potency [16]: inactive
- Potency [14]: inconclusive: 0.51 µM [inhibitor, full curve]

SMILES: CCOC(=O)Cn1cccc1-c1nc(-c2ccc(OC)cc2)c(-c2ccc(OC)cc2)s1
- Potency [2]: inconclusive: 8.57 µM [inhibitor, partial curve, poor fit]
- Potency [3]: inconclusive: 14.7 µM [inhibitor, partial curve]
- Potency [4]: inconclusive: 1.78 µM [inhibitor, partial curve, poor fit]

SMILES: Cc1cccc(N(C)C(=S)Oc2ccc3c(c2)CCC3)c1
- Potency [4]: inconclusive: 1.41 µM [inhibitor, partial curve, poor fit]
